Results on three substances are retold here after article PMC11519788.

The chains behind the UniProt entries cited, without tags or fusion partners.
UniProt O43791: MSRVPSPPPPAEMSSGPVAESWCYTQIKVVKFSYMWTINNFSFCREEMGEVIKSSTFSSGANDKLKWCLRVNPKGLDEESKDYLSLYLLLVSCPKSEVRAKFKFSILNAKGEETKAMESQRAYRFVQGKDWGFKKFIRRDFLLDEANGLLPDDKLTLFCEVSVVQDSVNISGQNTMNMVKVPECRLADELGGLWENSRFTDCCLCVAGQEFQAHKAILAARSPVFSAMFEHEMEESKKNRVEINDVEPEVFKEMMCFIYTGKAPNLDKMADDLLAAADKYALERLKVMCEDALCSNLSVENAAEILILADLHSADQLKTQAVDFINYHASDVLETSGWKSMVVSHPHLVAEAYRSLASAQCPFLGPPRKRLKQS
UniProt P40763: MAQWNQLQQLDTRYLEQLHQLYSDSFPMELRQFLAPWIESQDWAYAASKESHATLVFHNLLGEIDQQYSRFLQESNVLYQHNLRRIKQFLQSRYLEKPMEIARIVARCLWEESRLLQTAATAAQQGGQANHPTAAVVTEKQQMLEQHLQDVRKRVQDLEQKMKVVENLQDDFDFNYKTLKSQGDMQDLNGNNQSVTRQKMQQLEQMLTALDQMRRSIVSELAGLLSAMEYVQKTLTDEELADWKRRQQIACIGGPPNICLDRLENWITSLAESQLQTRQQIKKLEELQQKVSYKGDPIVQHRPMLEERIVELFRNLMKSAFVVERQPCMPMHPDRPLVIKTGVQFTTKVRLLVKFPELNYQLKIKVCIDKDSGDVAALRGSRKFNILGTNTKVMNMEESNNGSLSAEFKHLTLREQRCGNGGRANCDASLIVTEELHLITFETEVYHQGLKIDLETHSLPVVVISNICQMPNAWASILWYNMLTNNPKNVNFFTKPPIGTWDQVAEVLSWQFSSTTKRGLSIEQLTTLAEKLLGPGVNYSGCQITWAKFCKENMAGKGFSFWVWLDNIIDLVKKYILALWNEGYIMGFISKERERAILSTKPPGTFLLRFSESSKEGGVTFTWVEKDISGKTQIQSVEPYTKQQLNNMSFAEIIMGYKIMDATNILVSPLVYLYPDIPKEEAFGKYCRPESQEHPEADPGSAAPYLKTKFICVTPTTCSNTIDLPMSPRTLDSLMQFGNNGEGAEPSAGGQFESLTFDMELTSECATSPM

These are yes or no findings as the source states them, for the method shown. In cells and extracts the contact can be indirect. Some entries that bind do so weakly or less than the wild type.

The target of test [1] is FLAG-tagged SPOP (pCMV10-3×FLAG-SPOP), expressed in 293T cells (UniProt O43791). Put plainly: co-IP; 293T cells co-transfected with HA-STAT3 (WT or mutant) and FLAG-SPOP; MG132 10 μM for 6 h before harvest; NP-40 lysis buffer; IP with FLAG-tag antibody at 4℃ overnight, Protein A/G agarose; blot with HA-tag antibody.
In test [2] the target is endogenous STAT3 of T24 cells (human (endogenous in T24)) (UniProt P40763). Description: co-IP; T24 cells, both proteins endogenous; MG132 10 μM for 6 h before harvest; NP-40 lysis buffer; IP with STAT3 antibody; blot with SPOP antibody.
In test [3] the target is FLAG-tagged SPOP, transiently expressed in T24 cells (UniProt O43791). Description: co-IP; T24 cells transiently transfected with FLAG-SPOP; MG132 10 μM for 6 h before harvest; NP-40 lysis buffer; IP with FLAG-tag antibody; blot with STAT3 antibody for endogenous STAT3.

With “HA-tagged wild-type STAT3 (pCS2-4×HA-STAT3), expressed in 293T cells (from UniProt P40763 1-770)”, in test [1], the binding result is “binds”.

Consider “endogenous SPOP of T24 cells (from UniProt O43791 1-374)”, for which the binding entry in test [2] is given as “binds”.

On to “endogenous STAT3 of T24 cells (from UniProt P40763 1-770)”, for which, in test [3], the binding entry is on record as “binds”.
